{
  "source": "patent US20230355612A1",
  "about": "(SHANGHAI BOCIMED PHARMACEUTICAL CO., LTD., priority 2020, published 2023)",
  "origin": "cited, not measured here",
  "conditions": "provided by CN105218484A; cited from earlier work",
  "note": "Some entries share one result that the patent states for a list of compounds.",
  "data": [
    {"substance": "cariprazine tartrate", "values": [
      {"measurement": "Solubility", "result": "greater than 3 mg/mL"}
    ]}
  ]
}
